Measurements published in patent US20260139007A1 (SANFORD BURNHAM PREBYS MEDICAL DISCOVERY INSTITUTE, priority 2023, published 2026).
For some of these results: HELM strings list residues between dots; [ac] is acetyl, [am] amide, other brackets name non-standard units.

Key:
[1] = general procedure: Fmoc solid-phase peptide synthesis; Rink amide aminomethyl resin (0.69 mmol/g, Novabiochem) or Rink amide ChemMatrix resin (0.4 mmol/g, Biotage); Wang resin; HCTU/DIEA; DIC/Oxyma for SEQ ID NO: 39; conditions: oxidative folding step, analytical reversed-phase HPLC, integration of the signal at 214 nm
[2] = general procedure: Fmoc solid-phase peptide synthesis; Wang resin; HCTU/DIEA; DIC/Oxyma for SEQ ID NO: 39; conditions: whole synthesis, scale 0.5 mmol
[3] = general procedure: Fmoc solid-phase peptide synthesis; Gyros Rink amide resin; HCTU/DIEA; DIC/Oxyma for SEQ ID NO: 39; conditions: whole synthesis, analytical reversed-phase HPLC, integration of the signal at 214 nm, scale 0.25 mmole

Substance | final HPLC purity [1] [%] | crude mass [2] [g] | crude yield ([2]; theoretical crude 0.92 g) [%] | final LC-MS purity [3] [%]
H-βA1a-Pro-Tyr(tBu)-Cys(Trt)-Val-Tyr(tBu)-Arg (Pbf)-βA1a-Ser(tBu)-Trp(Boc)-Ser(tBu)-Cys(Trt)-Ahx-Ahx-Ahx-Pra-OH | >95 | 0.55 | 59.78 | 
PEPTIDE1{[XbA].P.Y.C.V.Y.R.[XbA].S.W.S.C.G.G.[XK_lauroylgEgE].G.[am]}$PEPTIDE1,PEPTIDE1,4:R3-12:R3$$$V2.0 |  |  |  | >95
